Results published in the supplement of paper PMC10849652.
The list shows a part of the results.

Chains of the proteins cited; added tags and fusions are not shown. Lines headed by an entry give the natural chain unless they say otherwise; changes in a name come on top.
UniProt Q14061: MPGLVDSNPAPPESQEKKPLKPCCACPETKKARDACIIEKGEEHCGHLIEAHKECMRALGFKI
UniProt Q9UNS2: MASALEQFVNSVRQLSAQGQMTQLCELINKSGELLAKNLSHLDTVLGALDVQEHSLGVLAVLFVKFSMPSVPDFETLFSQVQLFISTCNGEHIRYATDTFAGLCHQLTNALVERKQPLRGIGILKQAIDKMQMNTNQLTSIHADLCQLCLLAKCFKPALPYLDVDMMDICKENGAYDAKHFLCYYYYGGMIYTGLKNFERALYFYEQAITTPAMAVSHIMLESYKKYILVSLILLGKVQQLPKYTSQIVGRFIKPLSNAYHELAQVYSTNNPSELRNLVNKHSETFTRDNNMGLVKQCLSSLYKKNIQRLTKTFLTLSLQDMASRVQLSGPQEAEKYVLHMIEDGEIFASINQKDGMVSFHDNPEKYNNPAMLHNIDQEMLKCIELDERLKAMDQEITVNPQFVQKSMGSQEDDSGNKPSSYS
UniProt Q96I36: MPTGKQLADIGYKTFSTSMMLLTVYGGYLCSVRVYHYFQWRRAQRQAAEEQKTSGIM
UniProt Q53ET0: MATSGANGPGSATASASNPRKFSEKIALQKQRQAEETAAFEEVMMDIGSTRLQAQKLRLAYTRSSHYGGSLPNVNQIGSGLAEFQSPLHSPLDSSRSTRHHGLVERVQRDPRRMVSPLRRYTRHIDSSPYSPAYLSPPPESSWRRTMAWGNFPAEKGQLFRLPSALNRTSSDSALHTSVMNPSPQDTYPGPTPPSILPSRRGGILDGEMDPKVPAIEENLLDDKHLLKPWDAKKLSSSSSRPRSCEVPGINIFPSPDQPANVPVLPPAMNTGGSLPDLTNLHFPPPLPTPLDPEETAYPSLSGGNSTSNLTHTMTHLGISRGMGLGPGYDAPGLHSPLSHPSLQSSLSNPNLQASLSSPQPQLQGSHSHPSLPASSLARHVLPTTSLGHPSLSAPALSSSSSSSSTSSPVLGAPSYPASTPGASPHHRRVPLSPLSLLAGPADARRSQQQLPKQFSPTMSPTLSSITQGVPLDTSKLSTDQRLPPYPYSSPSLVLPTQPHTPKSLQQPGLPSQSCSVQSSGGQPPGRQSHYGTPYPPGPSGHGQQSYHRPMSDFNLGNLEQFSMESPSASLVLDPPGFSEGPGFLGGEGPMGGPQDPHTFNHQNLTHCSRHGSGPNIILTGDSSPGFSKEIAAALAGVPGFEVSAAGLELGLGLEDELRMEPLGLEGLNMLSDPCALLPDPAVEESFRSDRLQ
UniProt Q92905, whole entry, looked up: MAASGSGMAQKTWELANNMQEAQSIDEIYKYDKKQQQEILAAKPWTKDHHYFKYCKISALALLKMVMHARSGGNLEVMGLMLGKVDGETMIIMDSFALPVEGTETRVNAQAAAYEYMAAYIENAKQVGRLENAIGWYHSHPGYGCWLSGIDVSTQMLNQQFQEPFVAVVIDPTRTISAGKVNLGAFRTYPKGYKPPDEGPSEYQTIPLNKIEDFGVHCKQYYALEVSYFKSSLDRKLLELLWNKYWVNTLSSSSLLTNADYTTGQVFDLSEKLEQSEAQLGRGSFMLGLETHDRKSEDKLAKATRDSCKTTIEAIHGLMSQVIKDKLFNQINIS
UniProt P57737: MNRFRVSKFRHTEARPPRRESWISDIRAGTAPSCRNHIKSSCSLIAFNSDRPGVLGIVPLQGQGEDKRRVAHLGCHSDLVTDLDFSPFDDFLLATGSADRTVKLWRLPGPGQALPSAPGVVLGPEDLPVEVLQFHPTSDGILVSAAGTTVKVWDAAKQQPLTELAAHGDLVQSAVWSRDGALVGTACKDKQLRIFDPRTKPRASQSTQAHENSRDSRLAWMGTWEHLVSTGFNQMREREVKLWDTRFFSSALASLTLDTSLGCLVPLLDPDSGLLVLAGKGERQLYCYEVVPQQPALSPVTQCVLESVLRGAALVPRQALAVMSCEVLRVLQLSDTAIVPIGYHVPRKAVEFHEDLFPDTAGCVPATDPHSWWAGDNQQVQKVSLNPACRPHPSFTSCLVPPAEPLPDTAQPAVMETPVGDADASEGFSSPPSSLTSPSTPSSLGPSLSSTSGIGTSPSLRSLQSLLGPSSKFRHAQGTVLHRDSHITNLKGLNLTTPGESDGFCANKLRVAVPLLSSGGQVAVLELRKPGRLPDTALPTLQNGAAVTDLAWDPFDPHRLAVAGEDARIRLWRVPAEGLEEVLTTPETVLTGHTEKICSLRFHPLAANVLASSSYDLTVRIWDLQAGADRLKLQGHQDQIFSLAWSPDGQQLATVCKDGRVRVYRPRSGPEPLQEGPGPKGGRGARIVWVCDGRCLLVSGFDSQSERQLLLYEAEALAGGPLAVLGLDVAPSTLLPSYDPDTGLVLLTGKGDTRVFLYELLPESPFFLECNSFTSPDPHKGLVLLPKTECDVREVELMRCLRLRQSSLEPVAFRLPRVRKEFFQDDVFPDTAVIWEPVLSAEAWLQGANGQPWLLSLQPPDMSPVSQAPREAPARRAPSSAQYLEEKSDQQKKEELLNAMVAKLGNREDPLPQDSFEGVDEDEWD
UniProt O95639, whole entry, looked up: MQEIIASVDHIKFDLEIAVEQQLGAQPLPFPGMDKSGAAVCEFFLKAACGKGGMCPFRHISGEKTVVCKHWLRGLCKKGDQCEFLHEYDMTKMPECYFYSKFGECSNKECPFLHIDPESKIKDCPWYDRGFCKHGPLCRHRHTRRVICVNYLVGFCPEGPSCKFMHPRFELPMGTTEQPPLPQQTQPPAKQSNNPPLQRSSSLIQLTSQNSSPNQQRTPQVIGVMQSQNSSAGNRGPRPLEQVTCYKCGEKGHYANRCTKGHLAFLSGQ
UniProt Q8NHY2, whole entry, looked up: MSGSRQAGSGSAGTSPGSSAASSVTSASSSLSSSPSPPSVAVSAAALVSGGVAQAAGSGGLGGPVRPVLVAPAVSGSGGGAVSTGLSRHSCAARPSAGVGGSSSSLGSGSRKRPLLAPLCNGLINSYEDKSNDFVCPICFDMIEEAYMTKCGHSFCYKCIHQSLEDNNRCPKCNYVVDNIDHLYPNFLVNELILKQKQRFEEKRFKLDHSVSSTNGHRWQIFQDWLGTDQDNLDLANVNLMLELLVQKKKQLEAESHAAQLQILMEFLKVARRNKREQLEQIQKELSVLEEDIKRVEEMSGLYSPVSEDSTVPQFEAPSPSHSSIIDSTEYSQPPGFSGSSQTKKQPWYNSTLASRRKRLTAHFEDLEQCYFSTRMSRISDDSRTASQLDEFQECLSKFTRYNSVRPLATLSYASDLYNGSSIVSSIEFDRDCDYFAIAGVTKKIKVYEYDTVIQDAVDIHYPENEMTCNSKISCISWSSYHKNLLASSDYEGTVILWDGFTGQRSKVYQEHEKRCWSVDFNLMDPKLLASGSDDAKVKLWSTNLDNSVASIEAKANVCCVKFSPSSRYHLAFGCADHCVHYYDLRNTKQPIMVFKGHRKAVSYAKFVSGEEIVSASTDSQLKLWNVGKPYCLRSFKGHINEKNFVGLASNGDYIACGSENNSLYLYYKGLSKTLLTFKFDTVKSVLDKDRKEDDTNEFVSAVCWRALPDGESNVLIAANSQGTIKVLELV
UniProt P02461, whole entry, looked up: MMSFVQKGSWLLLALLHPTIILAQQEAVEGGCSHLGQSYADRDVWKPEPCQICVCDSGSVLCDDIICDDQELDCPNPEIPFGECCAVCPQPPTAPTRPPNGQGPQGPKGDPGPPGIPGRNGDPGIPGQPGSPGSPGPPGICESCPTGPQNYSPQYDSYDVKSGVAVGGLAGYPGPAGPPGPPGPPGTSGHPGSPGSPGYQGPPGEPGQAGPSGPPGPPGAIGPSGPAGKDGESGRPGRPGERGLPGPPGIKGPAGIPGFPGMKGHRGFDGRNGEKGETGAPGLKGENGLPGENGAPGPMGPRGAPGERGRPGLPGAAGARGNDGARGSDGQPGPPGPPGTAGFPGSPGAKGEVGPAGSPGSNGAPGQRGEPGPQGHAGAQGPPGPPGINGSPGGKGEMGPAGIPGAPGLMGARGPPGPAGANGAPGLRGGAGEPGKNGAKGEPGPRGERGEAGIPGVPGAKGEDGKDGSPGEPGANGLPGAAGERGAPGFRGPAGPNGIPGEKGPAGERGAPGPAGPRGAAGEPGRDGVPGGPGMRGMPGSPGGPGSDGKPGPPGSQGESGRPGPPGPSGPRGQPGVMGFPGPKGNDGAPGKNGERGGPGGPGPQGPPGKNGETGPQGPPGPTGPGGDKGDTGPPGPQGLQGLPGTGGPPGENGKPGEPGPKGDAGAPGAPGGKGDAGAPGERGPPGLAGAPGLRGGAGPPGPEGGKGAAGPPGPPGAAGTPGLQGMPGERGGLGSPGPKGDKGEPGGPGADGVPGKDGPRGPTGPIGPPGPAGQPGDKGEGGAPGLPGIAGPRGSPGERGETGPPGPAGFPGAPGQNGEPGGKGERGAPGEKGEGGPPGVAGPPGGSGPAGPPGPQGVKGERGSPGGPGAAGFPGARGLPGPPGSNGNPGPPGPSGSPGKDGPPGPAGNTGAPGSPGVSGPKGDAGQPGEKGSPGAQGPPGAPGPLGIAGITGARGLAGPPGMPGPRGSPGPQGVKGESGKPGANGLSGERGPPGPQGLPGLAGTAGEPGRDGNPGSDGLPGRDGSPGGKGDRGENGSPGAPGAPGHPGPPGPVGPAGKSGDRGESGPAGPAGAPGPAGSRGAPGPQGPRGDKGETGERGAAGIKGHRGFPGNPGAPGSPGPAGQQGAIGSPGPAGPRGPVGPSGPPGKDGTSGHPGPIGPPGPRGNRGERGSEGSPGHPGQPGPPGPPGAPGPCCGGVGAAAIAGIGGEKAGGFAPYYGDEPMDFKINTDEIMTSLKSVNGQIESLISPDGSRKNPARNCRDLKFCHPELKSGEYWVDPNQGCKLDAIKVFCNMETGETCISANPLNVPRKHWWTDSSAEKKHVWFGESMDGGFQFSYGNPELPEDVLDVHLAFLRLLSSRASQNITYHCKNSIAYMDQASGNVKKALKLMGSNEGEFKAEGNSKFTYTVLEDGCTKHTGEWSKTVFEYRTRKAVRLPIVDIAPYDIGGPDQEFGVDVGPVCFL
UniProt P29762, whole entry, looked up: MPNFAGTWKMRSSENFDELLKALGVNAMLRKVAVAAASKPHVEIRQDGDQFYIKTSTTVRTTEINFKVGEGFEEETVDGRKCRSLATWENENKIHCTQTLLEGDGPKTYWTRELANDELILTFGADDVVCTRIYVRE
UniProt P02458, whole entry, looked up: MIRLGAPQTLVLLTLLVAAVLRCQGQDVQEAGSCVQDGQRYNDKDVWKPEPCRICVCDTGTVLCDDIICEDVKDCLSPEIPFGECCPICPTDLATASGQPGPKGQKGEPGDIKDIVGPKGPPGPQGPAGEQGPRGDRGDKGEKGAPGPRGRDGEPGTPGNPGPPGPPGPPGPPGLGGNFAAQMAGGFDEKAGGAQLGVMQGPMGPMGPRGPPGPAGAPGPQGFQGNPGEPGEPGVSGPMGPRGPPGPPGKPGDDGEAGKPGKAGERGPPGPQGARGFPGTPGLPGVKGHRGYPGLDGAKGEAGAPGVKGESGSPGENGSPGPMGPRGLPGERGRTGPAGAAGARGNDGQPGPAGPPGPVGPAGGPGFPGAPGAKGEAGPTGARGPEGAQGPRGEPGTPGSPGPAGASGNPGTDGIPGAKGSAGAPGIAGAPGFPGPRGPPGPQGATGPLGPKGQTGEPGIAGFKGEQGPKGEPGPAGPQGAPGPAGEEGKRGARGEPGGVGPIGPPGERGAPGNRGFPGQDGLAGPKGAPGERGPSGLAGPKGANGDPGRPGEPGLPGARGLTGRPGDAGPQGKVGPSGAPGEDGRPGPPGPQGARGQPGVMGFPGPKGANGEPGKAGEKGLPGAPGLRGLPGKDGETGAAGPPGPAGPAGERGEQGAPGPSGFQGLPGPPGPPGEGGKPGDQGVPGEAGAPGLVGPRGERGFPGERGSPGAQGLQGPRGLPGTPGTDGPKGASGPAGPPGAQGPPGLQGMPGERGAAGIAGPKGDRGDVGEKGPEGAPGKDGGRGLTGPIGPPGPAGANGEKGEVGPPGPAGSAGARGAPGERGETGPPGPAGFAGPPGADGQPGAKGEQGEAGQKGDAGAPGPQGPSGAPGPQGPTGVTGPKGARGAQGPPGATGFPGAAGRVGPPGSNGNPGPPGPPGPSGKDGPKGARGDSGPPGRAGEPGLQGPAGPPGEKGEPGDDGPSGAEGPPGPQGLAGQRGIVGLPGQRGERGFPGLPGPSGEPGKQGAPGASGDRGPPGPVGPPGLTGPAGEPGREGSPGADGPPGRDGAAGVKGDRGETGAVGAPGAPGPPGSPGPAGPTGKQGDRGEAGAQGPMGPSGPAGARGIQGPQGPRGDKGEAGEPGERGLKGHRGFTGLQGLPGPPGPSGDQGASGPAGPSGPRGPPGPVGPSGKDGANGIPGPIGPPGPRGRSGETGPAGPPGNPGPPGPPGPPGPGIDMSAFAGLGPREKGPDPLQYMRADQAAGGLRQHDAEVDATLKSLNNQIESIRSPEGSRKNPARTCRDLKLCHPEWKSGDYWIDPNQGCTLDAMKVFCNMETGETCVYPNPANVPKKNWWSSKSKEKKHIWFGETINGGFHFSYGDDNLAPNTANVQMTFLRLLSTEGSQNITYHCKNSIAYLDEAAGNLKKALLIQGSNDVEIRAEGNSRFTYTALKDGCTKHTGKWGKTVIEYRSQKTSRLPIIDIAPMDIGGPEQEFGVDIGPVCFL

Experiments:
Test in all cases: log2 fold change, soluble protein after heating vs DMSO (PISA); higher = thermal stabilisation; K562 cells, 10 uM, 30 min; active = over 0.2 and 3.5 SD of the protein, either way, in both replicates (recomputed)
[1] = compound: COC1=CC=C(C=C1)CN2C=CC3=C2C=C(C=C3)C(=O)NO
In short: (§1)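 K562 cells at 2×10^6 cells/mL were treated with 10 μM compound for 30 min. Aliquots were heated for 3 min across 48°C-58°C, pooled, and extracted in PBS with 0.5% NP-40 at 4°C; soluble protein was the supernatant after 21,000xg for 90 min. Soluble protein was quantified by TMTpro 16plex LC-MS/MS with channel sums equalised, and reported as log2 fold change in thermal stability against DMSO controls, with values from duplicates.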

filanesib = compound: CON(C)C(=O)N1N=C(c2cc(F)ccc2F)S[C@@]1(CCCN)c1ccccc1 [filanesib]
In short: as §1

zotarolimus = compound: CO[C@H]1C[C@@H]2CC[C@@H](C)[C@@](O)(O2)C(=O)C(=O)N2CCCC[C@H]2C(=O)O[C@H]([C@H](C)C[C@@H]2CC[C@H](n3cnnn3)[C@H](OC)C2)CC(=O)[C@H](C)/C=C(\C)[C@@H](O)[C@@H](OC)C(=O)[C@H](C)C[C@H](C)/C=C/C=C/C=C/1C [zotarolimus]
In short: as §1

idasanutlin = compound: COc1cc(C(=O)O)ccc1NC(=O)[C@@H]1N[C@@H](CC(C)(C)C)[C@](C#N)(c2ccc(Cl)cc2F)[C@H]1c1cccc(Cl)c1F [idasanutlin]
In short: as §1

alisertib = compound: COc1cc(Nc2ncc3c(n2)-c2ccc(Cl)cc2C(c2c(F)cccc2OC)=NC3)ccc1C(=O)O [alisertib]
In short: as §1

gefitinib = compound: COc1cc2ncnc(Nc3ccc(F)c(Cl)c3)c2cc1OCCCN1CCOCC1 [gefitinib]
In short: as §1

[2] = compound: COc1cccc2cc(-c3nc([C@H]4CC[C@H](C(=O)O)CC4)n4ncnc(N)c34)[nH]c12
In short: as §1

pictilisib = compound: CS(=O)(=O)N1CCN(Cc2cc3nc(-c4cccc5[nH]ncc45)nc(N4CCOCC4)c3s2)CC1 [pictilisib]
In short: as §1

[3] = compound: COc1cc2nc(-c3cc(F)ccc3O)nc(N[C@@H]3CNC[C@H]3C(C)(C)O)c2cc1OC
In short: as §1

lapatinib = compound: CS(=O)(=O)CCNCc1ccc(-c2ccc3ncnc(Nc4ccc(OCc5cccc(F)c5)c(Cl)c4)c3c2)o1 [lapatinib]
In short: as §1

Target | log2 fold change [1] | log2 fold change (filanesib) | log2 fold change (zotarolimus) | log2 fold change (idasanutlin) | log2 fold change (alisertib) | log2 fold change (gefitinib) | log2 fold change [2] | log2 fold change (pictilisib) | log2 fold change [3] | log2 fold change (lapatinib)
COX17 (UniProt Q14061) | inactive: 0.183 | inactive: -0.059 | inactive: 0.034 | inactive: 0.059 | inactive: -0.112 | inactive: -0.055 | inactive: 0.02 | inactive: 0.092 | – | –
CRBN (UniProt Q96SW2) | inactive: -0.005 | inactive: -0.004 | inactive: -0.086 | inactive: 0.044 | inactive: -0.053 | inactive: -0.007 | inactive: 0.076 | inactive: 0.049 | inactive: -0.013 | inactive: 0.064
COMP (UniProt P49747) | inactive: -0.106 | inactive: 0.082 | inactive: -0.48 | inactive: 0.064 | inactive: 0.047 | – | inactive: 0.177 | inactive: -0.277 | inactive: -0.086 | inactive: 0.012
COPB1 (UniProt P53618) | inactive: 0.016 | inactive: -0.031 | inactive: 0.034 | inactive: -0.04 | inactive: -0.068 | inactive: 0.013 | inactive: -0.009 | inactive: 0.027 | inactive: 0.064 | inactive: 0.023
COPS3 isoform 2 (UniProt Q9UNS2) | inactive: -0.144 | inactive: 0.157 | – | inactive: 0.138 | inactive: -0.008 | inactive: 0.005 | inactive: 0.083 | inactive: 0.128 | inactive: 0.321 | inactive: -0.211
CSK (UniProt P41240) | inactive: 0.034 | inactive: -0.049 | inactive: 0.007 | inactive: -0.056 | inactive: -0.018 | inactive: 0.024 | inactive: -0.049 | inactive: 0.02 | inactive: 0.024 | inactive: 0.008
COX14 (UniProt Q96I36) | inactive: -0.233 | inactive: 0.004 | inactive: 0.088 | – | – | inactive: 0.089 | – | inactive: -0.149 | inactive: -0.082 | inactive: 0.036
COMMD4 (UniProt Q9H0A8) | inactive: 0.272 | inactive: 0.031 | inactive: -0.058 | inactive: -0.049 | inactive: -0.011 | inactive: 0.013 | inactive: 0.003 | inactive: 0.136 | – | –
COX7B (UniProt P24311) | inactive: 0.112 | inactive: 0.028 | inactive: -0.003 | inactive: -0.012 | inactive: 0.038 | inactive: 0.023 | inactive: 0.094 | inactive: -0.039 | inactive: -0.018 | inactive: -0.009
CPNE1 (UniProt Q99829) | inactive: -0.011 | inactive: -0.021 | inactive: 0.022 | inactive: -0.013 | inactive: 0.036 | inactive: 0.007 | inactive: 0.031 | inactive: -0.038 | inactive: 0.05 | inactive: -0.003
CPEB4 (UniProt Q17RY0) | inactive: -0.017 | inactive: 0.129 | inactive: -0.094 | inactive: 0.113 | inactive: -0.026 | – | inactive: -0.098 | inactive: 0.134 | inactive: 0.097 | inactive: 0
COLGALT2 (UniProt Q8IYK4) | inactive: -0.062 | inactive: 0.128 | inactive: 0.055 | inactive: 0.054 | inactive: -0.115 | inactive: -0.015 | inactive: -0.128 | inactive: -0.01 | inactive: -0.003 | inactive: 0.087
COPS2 (UniProt P61201) | inactive: 0.009 | inactive: -0.07 | inactive: -0.009 | inactive: -0.034 | inactive: -0.058 | inactive: -0.005 | inactive: 0.013 | inactive: 0.035 | inactive: -0.051 | inactive: 0.022
COL6A1 (UniProt P12109) | inactive: 0.008 | inactive: 0.052 | inactive: -0.197 | inactive: 0.077 | inactive: -0.058 | inactive: 0.048 | inactive: 0.293 | inactive: -0.098 | inactive: -0.113 | inactive: -0.019
CRYM-AS1 (UniProt A6NIL9) | inactive: 0.159 | inactive: 0.047 | inactive: 0.146 | inactive: -0.364 | inactive: 0.037 | inactive: -0.16 | inactive: -0.041 | inactive: 0.109 | – | –
CRTC2 (UniProt Q53ET0) | inactive: -0.004 | inactive: -0.019 | – | inactive: 0.086 | inactive: 0 | inactive: -0.056 | inactive: 0.066 | – | active: -0.509 | inactive: 0.079

Target | log2 fold change [1] | log2 fold change (filanesib) | log2 fold change (zotarolimus) | log2 fold change (idasanutlin) | log2 fold change (alisertib) | log2 fold change (gefitinib) | log2 fold change [2] | log2 fold change (pictilisib) | log2 fold change [3] | log2 fold change (lapatinib)
CPNE3 (UniProt O75131) | inactive: 0.025 | inactive: 0.02 | inactive: 0.049 | inactive: -0.009 | inactive: 0.031 | inactive: 0.008 | inactive: 0.025 | inactive: 0.017 | inactive: 0.054 | inactive: 0.014
COPS5 (UniProt Q92905) | inactive: 0.055 | inactive: -0.091 | inactive: 0.045 | inactive: -0.12 | inactive: -0.084 | inactive: -0.01 | inactive: 0.016 | inactive: 0.01 | inactive: -0.04 | inactive: 0.048
CPEB2 isoform 9 (UniProt Q7Z5Q1) | inactive: 0 | inactive: 0.017 | inactive: -0.174 | inactive: 0.209 | – | – | – | – | inactive: -0.064 | inactive: 0.058
CORO7 isoform 3 (UniProt P57737) | inactive: 0.024 | inactive: -0.196 | inactive: 0.018 | inactive: 0.037 | inactive: -0.024 | inactive: 0.007 | inactive: 0.009 | inactive: 0.005 | inactive: -0.203 | inactive: 0.018
CPSF7 isoform 3 (UniProt Q8N684) | inactive: 0.018 | inactive: 0.018 | inactive: 0.033 | inactive: -0.003 | inactive: -0.074 | inactive: 0.029 | inactive: -0.016 | inactive: 0.12 | inactive: 0.065 | inactive: 0.013
CRTAP (UniProt O75718) | inactive: -0.029 | inactive: 0.066 | inactive: 0.059 | inactive: 0.074 | inactive: -0.152 | inactive: -0.001 | inactive: -0.127 | inactive: -0.035 | inactive: -0.018 | inactive: 0.149
CRELD2 isoform 5 (UniProt Q6UXH1) | inactive: 0 | inactive: -0.011 | inactive: -0.026 | inactive: -0.041 | inactive: -0.031 | inactive: -0.043 | inactive: -0.002 | inactive: -0.041 | inactive: -0.017 | inactive: 0.02
CPSF4 (UniProt O95639) | – | – | – | inactive: 0.392 | inactive: 0.486 | inactive: -0.034 | inactive: -0.071 | inactive: 0.023 | – | –
CPA4 (UniProt Q9UI42) | – | – | – | inactive: 0.34 | – | – | – | – | – | –
COMMD3 (UniProt Q9UBI1) | inactive: 0.021 | – | inactive: 0.153 | inactive: -0.028 | inactive: 0.102 | inactive: -0.055 | inactive: 0.047 | – | inactive: -0.179 | inactive: 0.006
COP1 (UniProt Q8NHY2) | – | – | inactive: 0.02 | inactive: 0.059 | – | – | – | – | inactive: -0.096 | inactive: 0.124
COL3A1 (UniProt P02461) | inactive: -0.072 | – | inactive: -0.083 | – | – | – | – | inactive: 0.049 | inactive: -0.226 | inactive: 0.109
CRABP1 (UniProt P29762) | – | – | – | – | – | – | – | inactive: 0.293 | – | –
COL2A1 (UniProt P02458) | – | – | inactive: -0.195 | inactive: 0.059 | – | – | – | – | – | –
CRMP1 isoform 2 (UniProt Q14194) | – | inactive: 0.067 | inactive: -0.045 | inactive: 0.172 | – | inactive: -0.407 | – | inactive: 0.107 | – | –
CPSF2 (UniProt Q9P2I0) | inactive: -0.033 | inactive: 0.013 | – | inactive: 0.022 | inactive: -0.116 | inactive: 0.053 | inactive: 0.15 | inactive: 0 | inactive: 0.124 | inactive: -0.024

Two consecutive records already listed, for reference:
Target | log2 fold change [1] | log2 fold change (filanesib) | log2 fold change (zotarolimus) | log2 fold change (idasanutlin) | log2 fold change (alisertib) | log2 fold change (gefitinib) | log2 fold change [2] | log2 fold change (pictilisib) | log2 fold change [3] | log2 fold change (lapatinib)
CPA4 (UniProt Q9UI42) | – | – | – | inactive: 0.34 | – | – | – | – | – | –
COMMD3 (UniProt Q9UBI1) | inactive: 0.021 | – | inactive: 0.153 | inactive: -0.028 | inactive: 0.102 | inactive: -0.055 | inactive: 0.047 | – | inactive: -0.179 | inactive: 0.006
